PubChem BioAssay AID743454, Peter MacCallum Cancer Centre | 2014

Aim: 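Genes whose loss kills vorinostat-resistant colon cancer cells under vorinostat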 (primary screen)
System: human HCT116-VR colon cancer cells, selected for vorinostat resistance
Reagent: siRNA pool against human genes, 40 nM siRNA pool
Time to read-out: vorinostat for 24 h, read-out about 72 h after transfection
Treatment: vorinostat at 2.5 µM final
Measured: 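Cell viability by CellTiter-Fluor and caspase 3/7 activity by luminescence, each scaled to mock wells per plate, duplicates averaged, then robust z-scored over all plates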
Scale: viability robust z-score: higher = more viable cells than screen typical; caspase robust z-score: higher = more caspase 3/7 activity than screen typical
Rule for the call: 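Hits are knock-downs in viability class RV1/RV2 or caspase class CA1/CA2, excluding ones that killed cells in the no-drug cell-count arm; hits then retested with single siRNAs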
In all, the deposit lists about 18,000 reagents; this is a part drawn at random. 450 of them (2.5%) were called active. 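Single biological run; no consistent viability z cut-off exists, so the class columns, not z-scores, define the calls.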

| gene symbol | viability hit class | caspase hit class | viability robust z-score | caspase robust z-score | Outcome |
| --- | --- | --- | --- | --- | --- |
| IL17C (GeneID 27189) | no change | no change | 0.49 | 1.5 | inactive |
| ATP5PO (GeneID 539) | no change | no change | 0.44 | -0.22 | inactive |
| CYP2R1 (GeneID 120227) | no change | no change | 0.81 | 0.11 | inactive |
| CYP4F11 (GeneID 57834) | no change | no change | 0.53 | -0.4 | inactive |
| NDUFA10 (GeneID 4705) | no change | no change | -1.06 | -0.96 | inactive |
| ZBTB18 (GeneID 10472) | no change | no change | 0.5 | 1.09 | inactive |
| CCNA1 (GeneID 8900) | no change | no change | 0.01 | -0.4 | inactive |
| ICA1 (GeneID 3382) | no change | no change | 0.16 | -0.02 | inactive |
| PRPS2 (GeneID 5634) | no change | no change | 0.22 | -0.42 | inactive |
| SLC8A1 (GeneID 6546) | no change | no change | 0.5 | -0.33 | inactive |
| NUBP2 (GeneID 10101) | no change | no change | 1.34 | -0.1 | inactive |
| RAD17 (GeneID 5884) | no change | no change | 1.08 | -0.45 | inactive |
| NLRP9 (GeneID 338321) | no change | no change | 0.94 | -0.64 | inactive |
| GPER1 (GeneID 2852) | RV2 (reduced viability) | CA2 (caspase activation) | -3.08 | 8.61 | active |
| DEFB126 (GeneID 81623) | no change | no change | -1.34 | -0.32 | inactive |
| TRPV4 (GeneID 59341) | no change | no change | 0.46 | 0.77 | inactive |
| GCA (GeneID 25801) | no change | no change | -0.84 | -0.52 | inactive |
| TYW5 (GeneID 129450) | no change | no change | 0.34 | -0.05 | inactive |
| CENPQ (GeneID 55166) | no change | no change | -0.08 | -0.07 | inactive |
| RGCC (GeneID 28984) | no change | no change | -0.48 | 0.52 | inactive |
| FRS3 (GeneID 10817) | no change | no change | 0.32 | 1.21 | inactive |
| TARP (GeneID 445347) | no change | no change | -0.3 | 0.01 | inactive |
| PRELID3B (GeneID 51012) | no change | no change | -0.23 | 2.6 | inactive |

Targets above whose target name starts with R or r:
| gene symbol | viability hit class | caspase hit class | viability robust z-score | caspase robust z-score | Outcome |
| --- | --- | --- | --- | --- | --- |
| RAD17 (GeneID 5884) | no change | no change | 1.08 | -0.45 | inactive |
| RGCC (GeneID 28984) | no change | no change | -0.48 | 0.52 | inactive |
